Targets (5′ to 3′):
SAM-II: SAM-II riboswitch RNA pseudoknot, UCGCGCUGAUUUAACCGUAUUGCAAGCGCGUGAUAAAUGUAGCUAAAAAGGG. Hit rate about 1% of about 21,000 compounds.
TPP: TPP riboswitch RNA three-way junction, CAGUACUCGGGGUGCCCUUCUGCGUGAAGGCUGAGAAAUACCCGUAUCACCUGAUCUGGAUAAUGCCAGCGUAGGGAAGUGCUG. Hit rate about 0.7% of about 24,000 compounds.
PreQ1: PreQ1 riboswitch RNA pseudoknot, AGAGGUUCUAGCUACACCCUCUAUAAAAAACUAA. From B. subtilis. Hit rate about 0.7% of about 24,000 compounds.

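The test is a small-molecule microarray: each compound is printed twice on a reactive slide, and binding shows as fluorescence of the labelled oligonucleotide after washing. For the PreQ1, TPP and SAM-II riboswitches the laboratory earlier reported (doi:10.1038/s41467-019-09493-3) 1 µM RNA, 2 h, and a rule that included a mean Z-score above 3 (spot signal-to-noise against the whole library), a score well above that on a control array, and duplicate spots agreeing (coefficient of variation under 100). The data file gives only the calls; its cut-offs may differ, and compounds hitting several targets are kept. A missing hit is not proof of no binding, and a hit is not a measured affinity.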 “hit” means called a hit, “no hit” means screened and not called a hit. The compounds are a random part of those screened. A target missing from an entry has no call listed here.

- Nc1ncccc1CN1CC[C@@H]2[C@@H](CCC(=O)N2CCc2cccs2)C1 | SAM-II: no hit; TPP: no hit; PreQ1: no hit
- CNc1ncnc2c1cnn2C1CCCCO1 (centres undefined) | SAM-II: no hit; TPP: no hit; PreQ1: no hit
- CCOC(=O)Nc1csnn1 | SAM-II: no hit; TPP: no hit; PreQ1: no hit
- CS(=O)(=O)c1ccc(C(=O)Nc2ccc(Cl)c(-c3ccccn3)c2)c(Cl)c1 | SAM-II: no hit; TPP: no hit; PreQ1: no hit
- CCOCCCNCc1cccc(Oc2ncccn2)c1 | SAM-II: no hit; TPP: no hit; PreQ1: no hit
- Clc1ccccc1-n1cc(-c2ccccc2)c2c(NCCN3CCOCC3)ncnc21 | TPP: no hit; PreQ1: no hit
- Cc1nn(C)c(Cl)c1-c1c(-c2ccccc2)ncn1CCCO | SAM-II: no hit; TPP: no hit; PreQ1: no hit
- CC(C)(C)C1CC=C2C(=C(Nc3ccccc3)C(=O)N2c2ccccc2)C1 (centres undefined) | SAM-II: no hit; TPP: no hit; PreQ1: no hit
- Clc1ccccc1C1(c2ccnc(NCc3cccnc3)n2)CCNCC1 | SAM-II: no hit; TPP: no hit; PreQ1: no hit
- Cn1c(=O)c2c(-c3ccccc3Br)n(C(CO)(CO)CO)cc2n(C)c1=O | TPP: no hit; PreQ1: no hit
- COc1cccc2cc(-c3cc(-c4cnn(C)c4)c(C#N)c(N)n3)oc12 | SAM-II: no hit; TPP: no hit; PreQ1: no hit
- COc1ccc(-c2nn3c(NCCN4CCOCC4)cc(C)nc3c2C)cc1 | TPP: no hit; PreQ1: no hit
- O=S(=O)(NCc1ccccc1)N1CCC(O)CC1 | SAM-II: no hit; TPP: no hit; PreQ1: no hit
- C=C(C)[C@@H]1CC[C@]2(C(=O)O)CC[C@]3(C)[C@H](CC[C@@H]4[C@@]5(C)CC[C@H](O)C(C)(C)[C@H]5CC[C@]43C)[C@@H]12 | SAM-II: no hit; TPP: no hit; PreQ1: no hit
- Nc1cc(Nc2ccc(Br)cc2)nc(N)n1 | SAM-II: no hit; TPP: no hit; PreQ1: no hit
- Cc1ccc(Cl)cc1NC(=O)C(=O)NCCO | SAM-II: no hit; TPP: no hit; PreQ1: no hit
- CCOC(=O)c1n[nH]c(N)c1-c1ccc(OC)cc1 | SAM-II: no hit; TPP: no hit; PreQ1: no hit
- COc1cc(OC)cc(C(=O)NC2CC(C)(C)NC(C)(C)C2)c1 | SAM-II: no hit; TPP: no hit; PreQ1: no hit
- COc1ccc(NC(=O)c2c(N)sc3c2CCC(C(C)(C)C)C3)cc1 (centres undefined) | SAM-II: no hit; TPP: no hit; PreQ1: no hit
- COc1ccc(-c2nc3cc(N)ccc3o2)cc1Cl | SAM-II: no hit; TPP: no hit; PreQ1: no hit
- Nc1cc(=O)[nH]c(SCC(=O)Nc2ccc(Br)cc2)n1 | SAM-II: no hit; TPP: no hit; PreQ1: no hit
- CCOC(=O)N1CCN(c2c(NCCCOC)c(=O)c2=O)CC1 | TPP: no hit; PreQ1: no hit
- CC(O)CNC(=O)c1nn(-c2ccc(F)cc2)nc1CO (centres undefined) | TPP: no hit; PreQ1: no hit
- CCc1ccccc1Nc1nc(-c2sc(C)nc2C)cs1 | SAM-II: no hit; TPP: no hit; PreQ1: no hit
- COC(=O)c1cc(NS(=O)(=O)c2ccc(Cl)c(N)c2)cc(C(=O)OC)c1 | SAM-II: no hit; TPP: no hit; PreQ1: no hit
- Cc1cccc(Nc2c(-c3ccc(O)cc3)nc3ncccn23)c1 | SAM-II: no hit; TPP: no hit; PreQ1: no hit
- CN(C)CCNc1ncnc2c1c(-c1ccccc1)cn2-c1ccccc1 | TPP: no hit; PreQ1: no hit
- c1ccc(COC2CCN(c3ncnc4c3CCNCC4)CC2)nc1 | SAM-II: no hit; TPP: no hit; PreQ1: no hit
- O=C(NCCc1noc(CO)n1)Nc1ccc(Cl)cc1C(F)(F)F | SAM-II: no hit; TPP: no hit; PreQ1: no hit

Source: the ROBIN nucleic acid binder screens (doi:10.1002/anie.202211358).